Drawing on PMC1933423, this text covers binding for one substance.

No constants are given. Whether binding was seen depends on the method and setting. For some assays here: A result given as binding can be weak or reduced; the word gives no strength. For some assays here: Where a sequence is shown, tags or fusion partners need not be part of it.

The target of assay [1] is T1, C-terminal portion of the chick Hairy1 protein (C-Term, amino acids 150-291) (chick (Gallus gallus)) (UniProt O57337).
T1 sequence: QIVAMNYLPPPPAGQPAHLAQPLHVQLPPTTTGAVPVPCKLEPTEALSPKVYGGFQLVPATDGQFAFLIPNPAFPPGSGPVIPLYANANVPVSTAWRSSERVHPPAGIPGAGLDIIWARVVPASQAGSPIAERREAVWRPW
Kind of assay: two-hybrid; confirmation by mating: baits (Gal4 DNA-BD, pGBKT7) in Y187, preys (Gal4 AD, pGADT7) in AH109; growth of 20-fold serial dilutions on SD-Leu/-Trp/-His/-Ade/X-alpha-gal medium.

Assay [2] addresses T2, chick Hairy1 protein, whole (two-hybrid fusion) (chick (Gallus gallus)) (UniProt O57337).
T2 sequence: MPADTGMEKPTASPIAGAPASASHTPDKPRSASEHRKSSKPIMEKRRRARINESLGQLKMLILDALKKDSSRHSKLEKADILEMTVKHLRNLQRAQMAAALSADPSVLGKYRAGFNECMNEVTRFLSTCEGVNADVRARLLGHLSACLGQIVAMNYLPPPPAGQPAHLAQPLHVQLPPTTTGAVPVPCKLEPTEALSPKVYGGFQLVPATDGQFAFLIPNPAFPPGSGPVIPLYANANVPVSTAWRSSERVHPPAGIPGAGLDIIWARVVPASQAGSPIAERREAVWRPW
Described as above.

Assay [3] has as its target T3, N-terminus of chick Hairy1 (bHLH-OR, amino acids 1-163) (chick (Gallus gallus)) (UniProt O57337).
T3 sequence: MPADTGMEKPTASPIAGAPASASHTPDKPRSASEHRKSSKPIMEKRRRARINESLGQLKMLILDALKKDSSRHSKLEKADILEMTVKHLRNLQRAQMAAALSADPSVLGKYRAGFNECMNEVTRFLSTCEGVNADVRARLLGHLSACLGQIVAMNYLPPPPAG
Described as above.

In assay [4] the target is T1, C-terminal portion of the chick Hairy1 protein (C-Term, amino acids 150-291) (chick (Gallus gallus)). The assay is described as follows: two-hybrid; quantification of reporter beta-galactosidase activity in liquid culture, normalised to the Hairy1/Hairy1 interaction.
Assay [5] has as its target T2, chick Hairy1 protein, whole (two-hybrid fusion) (chick (Gallus gallus)). Described as above.

On to “chick Sap18 (prey of the confirmatory two-hybrid assays)”, for which the binding entry is on record as “binds” in assay [1]; “binds” in assay [2]; “no binding” in assay [3]; “binds” in assay [4]; “binds” in assay [5].
